# Taken from: PubChem BioAssay AID1508587 (Peter MacCallum Cancer Centre, 2020)
# Aim: 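Follow-up of vemurafenib sensitisers scored by lactate made per cell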 (follow-up of hits)
# System: human WM266.4 melanoma cells with a BRAF V600 mutation
# Reagent: single siRNA against human genes, 25 nM
# Timing: 96 h
# Conditions: vemurafenib 300 nM (about IC25), given 48 h after transfection for 48 h
# Read-out: 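Per-cell lactate from absorbance divided by DAPI nucleus counts, compared with and without vemurafenib, relative to non-targeting siRNA, mean of 2 replicates; nuclear counts also give cell number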
# Direction: lactate per cell, drug vs no drug: higher = less drug-induced drop in lactate per cell; lactate per cell with vemurafenib: higher = more lactate per cell under drug; lactate per cell without drug: higher = more lactate per cell without drug; cell growth with vemurafenib and cell growth without drug: higher = more cell growth over 48 h
# Active means: 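Enhancer call for any duplex whose drug versus no-drug per-cell lactate ratio is below 0.55 (2 SD beneath non-targeting average); genes confirmed when at least 2 of their 4 duplexes qualify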
# Shown is one part, drawn at random, of about 1,600 reagents tested. 623 of them (39%) were called active. 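Calls are for each duplex; lactate ratios contain extreme outliers.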 Entries without a mark were called inactive. Reagents against one gene are numbered here.
gene,reagent,"lactate per cell, drug vs no drug",lactate per cell with vemurafenib,lactate per cell without drug,cell growth with vemurafenib,cell growth without drug
TGM6,1,0.38 (active),0.88,1.36,0.48,0.48
TGM6,2,0.59,1.08,1.08,0.84,0.76
TGM6,3,0.31 (active),0.48,0.9,0.72,0.67
TGM6,4,-1.02 (active),-0.45,0.32,0.03,0.14
JRK,1,0.85,2.62,2.4,0.14,0.18
JRK,2,0.62,2.04,2.38,0.08,0.05
JRK,3,0.84,2.19,1.87,0.29,0.28
JRK,4,0.62,0.72,0.83,0.59,0.93
ATF6,1,0.6,1.8,1.92,0.05,0.03
ATF6,2,0.48 (active),0.74,1.02,0.64,0.79
ATF6,3,0.3 (active),0.31,0.67,0.86,0.87
ATF6,4,0.48 (active),1.56,2.12,0.01,-0.08
PPIA,1,0.41 (active),2.47,4.01,0.17,0.02
PPIA,2,0.68,10.3,9.75,-0.02,-0.05
PPIA,3,0.52 (active),1.23,1.56,0.35,0.36
PPIA,4,0.48 (active),0.7,0.94,0.58,0.54
MRS2,1,0.5 (active),0.44,0.64,1.29,1.37
MRS2,2,0.53 (active),1.06,1.47,0.82,0.52
MRS2,3,0.49 (active),0.46,0.68,0.7,0.79
MRS2,4,0.69,1.62,1.71,0.25,0.2
YTHDC2,1,0.66,0.9,0.9,0.32,0.57
YTHDC2,2,1.04,2.56,1.64,0.1,0.32
YTHDC2,3,0.24 (active),0.16,0.43,-0.01,0.09
YTHDC2,4,0.72,2.98,2.79,0.4,0.25
APOO,1,0.71,1.94,1.85,0.38,0.23
APOO,2,0.6,1.54,1.84,0.11,0.2
APOO,3,0.35 (active),0.37,0.72,-0.08,0.21
APOO,4,0.58,0.84,1,0.55,0.88
IFT46,1,0.68,1.05,0.98,0.97,1.04
IFT46,2,1.08,7.09,4.18,-0.13,-0.05
IFT46,3,0.24 (active),0.44,0.96,0.08,0.15
IFT46,4,0.48 (active),1.06,1.39,0.63,0.34
KCNK6,1,0.38 (active),1.54,2.5,0.4,0.1
KCNK6,2,0.48 (active),1.09,1.34,0.8,0.56
KCNK6,3,0.87,2.68,1.84,0.36,0.43
KCNK6,4,0.59,1.06,1.07,0.22,0.5
SLAMF8,1,0.5 (active),0.89,1.19,0.82,0.75
SLAMF8,2,0.57,1.02,1.19,0.22,0.39
SLAMF8,3,0.68,0.96,0.92,0.8,0.96
SLAMF8,4,0.46 (active),0.57,0.82,0.61,0.86
RASGRP2,1,0.66,3.15,2.96,-0.21,-0.09
RASGRP2,2,0.3 (active),0.94,2.14,0.34,0.29
RASGRP2,3,0.73,1.02,0.88,1.08,1.18
RASGRP2,4,0.64,1.34,1.31,0.62,0.65
FPGS,1,0.87,1.76,1.36,0.67,0.61
FPGS,2,0.5 (active),1.62,2.13,0.46,0.19
FPGS,3,0.87,0.97,0.72,0.59,0.72
FPGS,4,0.64,5.06,5.12,0.03,-0.03
INPP5A,1,0.56,1.34,1.51,0.51,0.42
INPP5A,2,0.58,1.76,1.9,0.22,0.09
INPP5A,3,0.46 (active),0.7,0.96,0.78,0.77
INPP5A,4,0.4 (active),1.25,1.98,0.09,0.17
SERINC5,1,0.35 (active),1.21,2.44,0.12,-0.07
SERINC5,2,0.52 (active),0.94,1.24,0.73,0.46
SERINC5,3,0.54 (active),0.58,0.74,0.77,0.91
SERINC5,4,0.7,1.94,2.1,0.2,0.26
CCL3,1,0.86,1.09,0.84,0.7,0.91
CCL3,2,1.1,2.16,1.33,0.04,0.18
CCL3,3,0.58,2.11,2.39,0.27,0.19
CCL3,4,0.43 (active),0.52,0.8,0.44,0.51
CD164,1,0.57,0.76,0.98,0.52,0.32
CD164,2,0.67,1.9,2.08,0.24,0.17
CD164,3,0.44 (active),0.54,0.9,-0.15,0.1
CD164,4,0.58,0.89,1.1,0.29,0.49

9 of these entries, reformatted.
{"gene":"IFT46","reagent":2,"lactate per cell, drug vs no drug":1.08,"lactate per cell with vemurafenib":7.09,"lactate per cell without drug":4.18,"cell growth with vemurafenib":-0.13,"cell growth without drug":-0.05}
{"gene":"IFT46","reagent":3,"lactate per cell, drug vs no drug":"0.24 (active)","lactate per cell with vemurafenib":0.44,"lactate per cell without drug":0.96,"cell growth with vemurafenib":0.08,"cell growth without drug":0.15}
{"gene":"IFT46","reagent":4,"lactate per cell, drug vs no drug":"0.48 (active)","lactate per cell with vemurafenib":1.06,"lactate per cell without drug":1.39,"cell growth with vemurafenib":0.63,"cell growth without drug":0.34}
{"gene":"KCNK6","reagent":1,"lactate per cell, drug vs no drug":"0.38 (active)","lactate per cell with vemurafenib":1.54,"lactate per cell without drug":2.5,"cell growth with vemurafenib":0.4,"cell growth without drug":0.1}
{"gene":"KCNK6","reagent":2,"lactate per cell, drug vs no drug":"0.48 (active)","lactate per cell with vemurafenib":1.09,"lactate per cell without drug":1.34,"cell growth with vemurafenib":0.8,"cell growth without drug":0.56}
{"gene":"KCNK6","reagent":3,"lactate per cell, drug vs no drug":0.87,"lactate per cell with vemurafenib":2.68,"lactate per cell without drug":1.84,"cell growth with vemurafenib":0.36,"cell growth without drug":0.43}
{"gene":"KCNK6","reagent":4,"lactate per cell, drug vs no drug":0.59,"lactate per cell with vemurafenib":1.06,"lactate per cell without drug":1.07,"cell growth with vemurafenib":0.22,"cell growth without drug":0.5}
{"gene":"SLAMF8","reagent":1,"lactate per cell, drug vs no drug":"0.5 (active)","lactate per cell with vemurafenib":0.89,"lactate per cell without drug":1.19,"cell growth with vemurafenib":0.82,"cell growth without drug":0.75}
{"gene":"SLAMF8","reagent":2,"lactate per cell, drug vs no drug":0.57,"lactate per cell with vemurafenib":1.02,"lactate per cell without drug":1.19,"cell growth with vemurafenib":0.22,"cell growth without drug":0.39}
